Measured values: publication PMC4686830, “Ankyrin-mediated self-protection during cell invasion by the bacterial predator Bdellovibrio bacteriovorus” (Nature Communications, 2015)
These are yes or no findings as the source states them, for the method shown. Some entries that bind do so weakly or less than the wild type. Sequences can lack the tags named with a protein.

How the values were obtained:
[1] = biological target: T1, Bd0816 DD-endopeptidase S58A (K26M start, C-terminal H8 tag) (Bdellovibrio bacteriovorus HD100) (UniProt Q6MPN2); assay: crystal structure; co-expressed and co-purified complexes, hanging drop at 18 °C; molecular replacement; both purified
T1 sequence: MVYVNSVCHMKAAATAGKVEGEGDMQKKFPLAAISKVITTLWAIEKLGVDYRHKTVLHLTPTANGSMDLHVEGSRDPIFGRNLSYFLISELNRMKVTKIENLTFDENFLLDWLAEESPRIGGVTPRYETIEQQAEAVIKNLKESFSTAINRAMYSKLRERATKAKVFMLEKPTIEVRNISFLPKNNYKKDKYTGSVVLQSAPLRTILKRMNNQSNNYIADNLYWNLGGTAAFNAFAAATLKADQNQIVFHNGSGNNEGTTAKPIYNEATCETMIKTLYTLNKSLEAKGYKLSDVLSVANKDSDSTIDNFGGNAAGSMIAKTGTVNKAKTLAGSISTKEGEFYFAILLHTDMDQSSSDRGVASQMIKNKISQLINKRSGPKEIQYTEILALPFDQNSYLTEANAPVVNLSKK

[2] = biological target: T2, Bd3459 DD-endopeptidase, new construct starting post signal peptide with K38M, C-terminal H8 tag (Bdellovibrio bacteriovorus HD100) (UniProt Q6MHT0); assay: as above
T2 sequence: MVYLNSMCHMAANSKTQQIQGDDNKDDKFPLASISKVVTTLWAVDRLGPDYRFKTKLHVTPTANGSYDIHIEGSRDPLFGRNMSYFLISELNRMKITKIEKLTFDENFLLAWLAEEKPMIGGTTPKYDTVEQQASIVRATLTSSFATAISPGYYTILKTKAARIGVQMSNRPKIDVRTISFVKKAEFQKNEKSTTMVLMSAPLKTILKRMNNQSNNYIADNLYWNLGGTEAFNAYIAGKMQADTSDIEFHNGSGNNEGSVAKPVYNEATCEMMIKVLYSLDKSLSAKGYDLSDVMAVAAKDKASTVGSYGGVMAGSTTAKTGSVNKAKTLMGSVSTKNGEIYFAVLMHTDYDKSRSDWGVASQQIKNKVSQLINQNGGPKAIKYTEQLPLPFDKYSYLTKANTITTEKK

[3] = biological target: T3, Bd3459 DD-endopeptidase (K38M start, C-terminal H8 tag) acylated with penicillin G in crystals of its complex with Bd3460 (Bdellovibrio bacteriovorus HD100) (UniProt Q6MHT0); assay: crystal structure; pre-grown crystals of the Bd3459:Bd3460 complex incubated with reservoir solution with 2 mM penicillin G for one hour; both purified
T3 sequence (chain, active site serine acylated by penicillin G): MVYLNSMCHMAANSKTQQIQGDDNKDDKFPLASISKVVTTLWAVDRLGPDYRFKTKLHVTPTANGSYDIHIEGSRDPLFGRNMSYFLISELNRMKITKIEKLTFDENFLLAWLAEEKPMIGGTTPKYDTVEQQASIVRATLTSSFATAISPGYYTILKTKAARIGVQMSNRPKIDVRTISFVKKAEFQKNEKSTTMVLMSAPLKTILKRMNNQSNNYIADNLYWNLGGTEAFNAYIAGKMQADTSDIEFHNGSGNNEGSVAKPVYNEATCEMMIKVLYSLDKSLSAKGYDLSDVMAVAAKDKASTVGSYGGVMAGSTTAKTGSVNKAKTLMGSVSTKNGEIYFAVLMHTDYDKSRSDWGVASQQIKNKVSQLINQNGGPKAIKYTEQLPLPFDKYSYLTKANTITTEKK

Measured: binding

B1: Bd3460, exported domain (amino acids 26-220), untagged, co-expressed with an endopeptidase (natural protein, Bdellovibrio bacteriovorus HD100, UniProt Q6MHS9 25-220, looked up)
chain: MSGKSSKALNEAAEQGDLAKVKNLVQKNKIDLNAQDETGMTPLMNAAMGGNLDIVKFLLSKKVNLELKNNGGETALAFAVTNDAYDVAEELIKAGANVDIIVAGDEGDTLFMRAAQNNKKTAESILAKNKSLINKANTLGETALFAVARYGTPADIDFLIKKGADLKLKNKKGQTALDVAKEASNQDTAKALSKKK
notes: The only change is the start methionine in place of A25; also called untagged Bd3460; source: E. coli T7 express, co-expressed from pCDF-Duet1 with the H8-tagged endopeptidase, co-purified (His column)
binds: all assays above
